For at least one compound, name, drawing or mass did not settle the structure.
Assay: Generation of singlet oxygen from protoporphyrin IX via LNP emission, detected with DPBF (absorbance at 415 nm)

C=CC1=C(C)c2cc3[nH]c(cc4nc(cc5[nH]c(cc1n2)c(C)c5CCC(=O)O)C(CCC(=O)O)=C4C)c(C)c3C=C [PPIX, protoporphyrin IX]
decrease in DPBF absorbance at 415 nm (singlet oxygen generation) (Example 1, FIG. 1, NIR(+),LNP(−), PPIX 2×10^−5 M): decrease in absorbance was not confirmed
decrease in DPBF absorbance at 415 nm (singlet oxygen generation) (Example 1, FIG. 1, UV(+),LNP(−), 400-nm UV positive control, PPIX 2×10^−5 M): decrease in absorbance was observed
decrease in DPBF absorbance at 415 nm (singlet oxygen generation) (Example 2, FIG. 2, NIR(+),LNP(−), PPIX 3.6×10^−5 M): decrease in absorbance was not confirmed
decrease in DPBF absorbance at 415 nm (singlet oxygen generation) (Example 2, FIG. 2, NIR(−),LNP(−), PPIX 3.6×10^−5 M): decrease in absorbance was not confirmed

From patent publication US9757357B2, “Photodynamic therapy or diagnostic agent, using infrared-spectrum light” (Tokyo Institute of Technology, priority 2011, dated 2017)
